# Test results: PubChem BioAssay AID1259415 (National Center for Advancing Translational Sciences (NCATS), 2018)
# The campaign covered roughly 410,000 compounds. About 18,000 (4.4%) were called active. This list was built around the results that the source calls inconclusive (neither active nor inactive); the mix of calls is not that of the screen. Rule as the data show it: active = activity change below about -60%; inconclusive = no clear call, values can overlap the other calls; inactive = above about -39%.
# Assay: qHTS Assay for inhibitors of the human cytomegalovirus (HCMV)
# Settings: HFF cells, HCMV-luciferase reporter, 72 h; at 57.5 µM; hits give low values
# Summary of the method: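 Two compound doses tested in HFFs infected with HCMV-luciferase, MOI 1 PFU/cell, 72 h at 37C. Lysate luminescence read with OneGlo; data normalized against buffer-only and 10uM Salinomycin inhibitor controls.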
# % is scaled to controls: 0 for no effect and ±100 for the full control effect.
row,SMILES,"activity change, negative = inhibition"
1,COc1ccc(NC(=O)c2cccc(N3CCCS3(=O)=O)c2)cc1OC,inactive: 36.2%
2,CC(C)Cc1ccc(S(=O)(=O)N2CCC(c3ccncc3)CC2)cc1,inconclusive: -51.2%
3,COc1cc(/C=C/C(=O)OCC(=O)NCc2cccs2)ccc1OCC#N,inconclusive: -56%
4,CCOc1ccccc1CNC(=O)CCn1c(=O)c2cccn2c2ccc(F)cc21,inconclusive: -51.7%
5,CC1=Nc2ccc(Br)cc2C(c2ccccc2)N1CC(=O)NN (stereo not given),inactive: -19.2%
6,COc1ccc(NC(=O)C2COc3ccccc3C2)cc1Cl (stereo not given),inactive: 4.85%
7,CCOc1ccc(N(Cc2cc3ccc(C)cc3[nH]c2=O)S(=O)(=O)c2ccccc2)cc1,inconclusive: -57.4%
8,COc1cc(CN2C[C@@H](CO)O[C@@H](n3cnc4c(N5CCN(C)CC5)ncnc43)C2)cc(OC)c1OC,inconclusive: -48.3%
9,Cn1c(SCC(=O)Nc2ccccc2)nnc1-c1ccccc1,inactive: -9.43%
10,COc1cc(CCN2C(=O)c3cccc4cccc(c34)C2=O)c(S(=O)(=O)N2CCC(C)CC2)cc1OC,inconclusive: -46.4%
11,COc1ccccc1NC(=O)N1CCN(Cc2ccc3c(c2)OCO3)CC1,inconclusive: -47%
12,C/C(=N/N=C1\SCC(=O)N1c1ccccc1)c1ccc(C)cc1,inactive: 24.8%
13,Cc1ccc(C2NC(C(=O)O)CS2)cc1 (stereo not given),active: -64.5%
14,CCCCNS(=O)(=O)c1ccc2nc(SCC(=O)Nc3ccccc3)[nH]c2c1,inconclusive: -50.3%
15,COC(=O)C1=C(O)/C(=C/c2cccc(OC)c2O)N=C1C,inconclusive: -40.5%
16,COc1ccc(C(=O)c2ccc(CC(=O)O)s2)cc1,inactive: -16.1%
17,COc1cccc(S(=O)(=O)Nc2ccc3c(c2)[C@H]2C[C@H](CC(=O)N[C@@H](C)c4ccccc4)O[C@H](CO)[C@H]2O3)c1,inactive: -11.8%
18,O=C(Nc1nc2c(s1)CCCC2)c1cccnc1,inactive: 142%
19,Cc1cccc(C)c1NC(=S)N1CCCCCC1,active: -64.3%
20,O=c1[nH]c(C2CCN(S(=O)(=O)c3ccccc3C(F)(F)F)CC2)nc2c1nnn2Cc1ccccc1,inconclusive: -44.8%
21,Cc1ccc2[nH]c3c(=O)n(CC(=O)NCc4ccco4)ncc3c2c1,inconclusive: -40.9%
22,CCOC(=O)Cn1cnc2c(nnn2-c2ccc(C)cc2)c1=O,active: -73.5%
23,COc1ccccc1NC(=O)C(C)OC(=O)C1CCN(S(=O)(=O)c2ccc(C)c(C)c2)CC1 (stereo not given),inactive: -14.5%
24,COc1cccc(CNc2nc3cc(-c4ccccc4CO)sc3c(=O)n2C)c1,inactive: 6.86%
25,CCOc1ccc(C(OC(=O)c2ccco2)C(=O)NCc2ccc(C)cc2)cc1 (stereo not given),active: -74%
26,O=C(Cc1ccc(F)cc1)Nc1c(C(=O)N2CCN(c3ncccn3)CC2)oc2ccccc12,inconclusive: -45.7%
27,N/C(=N\OC(=O)CCC1CCCC1)c1ccccc1,inconclusive: -50.2%
28,COc1ccccc1CNS(=O)(=O)c1c(C(=O)N2CCCCC2)c(C)n(C)c1C,inconclusive: -48.4%

row,SMILES,"activity change, negative = inhibition"
1,O=C(Nc1ccc(CSc2ccccc2)cc1)c1ccco1,active: -83.6%
2,COc1ccc(NC(=S)N(CCc2c(C)[nH]c3ccccc23)Cc2ccco2)cc1,inconclusive: -41%
3,Cc1ccccc1NC(=O)N1C2CCCC1CC(NC(=O)C(C)(C)C)C2 (stereo not given),inactive: 71.5%
4,Cc1ccc2c(=O)cc(C(=O)Nc3sc4c(c3C(=O)NCc3ccco3)CCC4)oc2c1,inactive: -2.84%
5,CCCCN(CC)CCCNC(=O)c1cn(-c2ccc(OC)cc2)c(=O)c2ccccc12,inconclusive: -58.7%
6,Cc1ccc(SCc2cc(=O)[nH]c(/N=C(\N)Nc3cccc4ccccc34)n2)cc1,inconclusive: -57.1%
7,C=C(C)COc1ccc(-c2ncncc2-c2ccc(OC)cc2)c(O)c1,inconclusive: -40.3%
8,COC(=O)[C@]12CCCCC=C1N(Cc1ccc(Cl)cc1Cl)C(=O)[C@H](CC(=O)N1CCN(C(=O)c3ccco3)CC1)C2,inconclusive: -55.2%
9,CN(CC(=O)O)S(=O)(=O)c1cc(Cl)ccc1Cl,inactive: -10.4%
10,CC(NC(=S)Nc1ccc(S(=O)(=O)N2CCOCC2)cc1)C1CC2CCC1C2 (stereo not given),inconclusive: -45.2%
11,CCCN1CCC(NC(=O)c2cccc(Oc3ccccc3)c2)CC1,inconclusive: -43%
12,O=C(COc1ccc(F)cc1Br)NCC1(N2CCOCC2)CCCCC1,inconclusive: -45.6%
13,COc1cc2c(=O)c(C(=O)c3ccc(C)c(C)c3)cn(Cc3ccccc3F)c2cc1OC,active: -71.7%
14,O=C(Oc1ccc2c(c1)OCO2)C12CC3CC(CC(C3)C1)C2,inconclusive: -56.2%
15,O=C(Nc1nc2ccc(Cl)cc2s1)c1ccc(N2CCCCC2)c([N+](=O)[O-])c1,active: -66.7%
16,CC1CC1C(=O)OCC(=O)Nc1ccc(N=Nc2ccccc2)cc1 (stereo not given),inactive: 174%
17,Clc1ccc(OCCN2CCCCC2)cc1Cl,inactive: -27.4%
18,Cc1ccc(-n2c(SCC(=O)Nc3ncc(Cl)cc3Cl)nc3ccccc32)cc1,active: -98.7%
19,COc1ccc(NC(=O)/C=C/c2ccc3c(c2)OCO3)cc1,inconclusive: -53.7%
20,O=C(CSc1ccccc1)Nc1cc(S(=O)(=O)N2CCOCC2)ccc1N1CCOCC1,inconclusive: -50.1%
21,O=C(N/C(=C\c1ccco1)C(=O)N1CCOCC1)c1ccc([N+](=O)[O-])cc1,inactive: -17.8%
22,COc1ccc(F)cc1C(=O)C1CCCN(Cc2cccn2-c2cccnc2)C1 (stereo not given),inconclusive: -55.2%
23,Cc1ccccc1CN(CC(=O)Nc1cccc([N+](=O)[O-])c1)S(=O)(=O)c1ccc(Cl)cc1,inactive: -37.5%
24,O=C(CSc1n[nH]c(-c2ccccn2)n1)Nc1ccc(F)cc1,inconclusive: -56%
25,Cc1cc(Cl)cc(C)c1OCCn1ccnc1,inconclusive: -57.5%
26,COc1ccc(-c2nc3ccccc3s2)cc1O,inconclusive: -55.6%
27,CC[n+]1ccc(/C=C/c2ccc(N(C)C)cc2)c2ccccc21,active: -99%

# Some of the entries above, reformatted.
row | SMILES | activity change, negative = inhibition
9 | CN(CC(=O)O)S(=O)(=O)c1cc(Cl)ccc1Cl | inactive: -10.4%
10 | CC(NC(=S)Nc1ccc(S(=O)(=O)N2CCOCC2)cc1)C1CC2CCC1C2 (stereo not given) | inconclusive: -45.2%
11 | CCCN1CCC(NC(=O)c2cccc(Oc3ccccc3)c2)CC1 | inconclusive: -43%
12 | O=C(COc1ccc(F)cc1Br)NCC1(N2CCOCC2)CCCCC1 | inconclusive: -45.6%
13 | COc1cc2c(=O)c(C(=O)c3ccc(C)c(C)c3)cn(Cc3ccccc3F)c2cc1OC | active: -71.7%
